Screen size: about 220,000 compounds; about 2,400 (1.1%) were called active. The shares of active, inactive and inconclusive entries below differ from those in the screen. Calls follow the shape of the dose curve; as a rule, active = well fitted inhibition curve with a large enough effect; inconclusive = small, poorly fitted or top-dose-only effect, or effect the other way; inactive = no such curve, though single readings can be large or run the other way. A potency beside an inconclusive call is a rough fit, not a confirmed value.
assay: qHTS Multiplex Assay to Identify Dual Action Probes in a Cell Model of Huntington: Aggregate Formation (GFP); conditions: PC12 HttQ103-GFP aggregates, Acumen cytometry, 40 h; activity change, negative = inhibition: at 46.1 µM (top of the series) unless noted; also: nearly all actives have a fitted effect of over 60% in size
Procedure, shortened: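 Inducible Q103 Huntingtin exon 1–GFP PC12 line, 1500 cells/well in phenol red free DMEM with 5% equine and 5% calf serum. Tebufenozide 100 nM induced expression; compounds titrated; aggregates quantified by cytometry.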
% is scaled to controls: 0 for no effect and ±100 for the full control effect; potency is read from the fitted curve at half-maximal effect.

Compound	Potency	activity change, negative = inhibition
CCCCn1c(NCc2ccccn2)nc2ccccc21	inconclusive: 11.2 µM [inhibitor, partial curve]	
CCCCCCCCCCCCCCCC[n+]1cccc2ccccc21	active: 7.94 µM	
c1ccc(CSc2nnc(-c3ccco3)c(-c3ccco3)n2)cc1	inconclusive: 31.6 µM [activator, single point]	
COc1ccc(-n2c(=O)c3ccccc3c3ccccc3c2=O)c(OC)c1	inconclusive: 22.4 µM [activator, single point]	
CC1N(C)c2cc(NC(=O)c3cccs3)c(P(=O)(Nc3ccc([N+](=O)[O-])cc3)N3CCOCC3)cc2C1(C)C (centres undefined)	inconclusive: 25.1 µM [inhibitor, single point]	
Cc1nn(-c2ccccc2)c(N)c1Sc1ccc([N+](=O)[O-])cc1		inactive: -3.54%
COC(=O)C(C)Sc1nnc(Cc2cc(=O)[nH]c(=O)[nH]2)n1-c1ccc(Cl)cc1 (centres undefined)	inconclusive: 6.31 µM [activator, full curve, poor fit]	
Cc1ccc(O)c(NC(=O)CCC2CCCCC2)c1	inconclusive: 7.94 µM [activator, partial curve]	
COCCNC(=S)N/N=C(\C)c1ccc(Cl)c(Cl)c1Cl	inconclusive: 35.5 µM [activator, single point]	
CCOC(=O)c1c(-c2cccs2)csc1NC(=O)C(C)(C)C	active: 14.1 µM	
COc1cccc(C(=O)Nc2cccc(OC(C)=O)c2)c1	inconclusive: 20 µM [inhibitor, single point]	
COCCN(Cc1cc2cc(C)ccc2n2nnnc12)C(=S)Nc1ccccc1C	inconclusive: 2.82 µM [inhibitor, partial curve, poor fit]	
COc1ccc(NS(=O)(=O)c2ccc3oc(SCc4ccc(F)cc4)nc3c2)cc1	inconclusive: 35.5 µM [inhibitor, single point]	
CS(=O)(=O)N1CCN(C(=O)Cc2cccs2)CC1	inconclusive: 1.26 µM [activator, single point]	
COc1ccc(Cn2c(=O)[nH]c3cc(C(=O)N4CCN(Cc5ccccc5)CC4)ccc3c2=O)cc1	inconclusive: 35.5 µM [inhibitor, single point]	
COc1ccccc1NS(=O)(=O)c1ccc(Br)s1		inactive: 1.02%
CCOC(=O)c1cc2sccc2n1CCCN1C(=O)c2ccccc2C1=O	inconclusive: 3.55 µM [inhibitor, single point]	
Cc1ccc(C(=O)C[n+]2ccc(Cc3ccccc3)cc2)cc1	inconclusive: 35.5 µM [inhibitor, single point]	
CC(=O)Nc1sc2c(c1C#N)CCCCC2	inconclusive: 0.794 µM [inhibitor, full curve, poor fit]	
CCCCOc1ncnc2c1[nH]c1ccc(F)cc12	active: 3.16 µM	
Cc1nc2ccc(S(=O)(=O)NC(C(=O)Nc3nc4ccc(Cl)cc4s3)C(C)C)cc2s1 (centres undefined)	inconclusive: 2.24 µM [activator, partial curve]	
CC(C)n1nc(C(=O)Oc2cc(Cl)ccc2Cl)c2ccccc2c1=O	inconclusive: 5.62 µM [inhibitor, single point]	

Compound	Potency	activity change, negative = inhibition
CCCNC(=S)NCCN1CCCCC1		inactive: 1.09%
O=S(=O)(c1ccc(Br)cc1)N1CCCC1c1nc2ccccc2s1 (centres undefined)	inconclusive: 12.6 µM [inhibitor, partial curve]	
COc1cc(C(=O)NCC(=O)OC(C)C(=O)Nc2ncc(Cl)cc2Cl)cc(OC)c1OC (centres undefined)		inactive: -0.816%
COc1ccc(-c2oc3ncn(Cc4ccco4)c(=N)c3c2-c2ccc(OC)cc2)cc1	inconclusive: 35.5 µM [inhibitor, single point]	
Nc1nc(-c2ccccn2)nc(N)c1Cc1ccccc1F	inconclusive: 22.4 µM [inhibitor, single point]	
Oc1ccc(Nc2nc(-c3ccc(O)cc3)cs2)cc1	inconclusive: 12.6 µM [inhibitor, single point]	
O=C(NC1=NCCS1)C1CCCCC1		inactive: -14.1%
C=CCc1cc(C(=O)N2CCCCC2)ccc1O	active: 22.4 µM	
CCOc1ccc(/C=N/NC(=S)Nc2c(C)cccc2C)cc1	inconclusive: 35.5 µM [inhibitor, single point]	
O=c1[nH]oc2cc(Cl)ccc12		inactive: 10% [at 9.22 µM]
Cc1ccc(-c2nn(CC(=O)NCCN3CCOCC3)c(=O)c3ccccc23)cc1	inconclusive: 2.82 µM [inhibitor, single point]	
Cn1nnnc1SCC(=O)Nc1cc(C(C)(C)C)nn1-c1ccccc1	inconclusive: 1.26 µM [activator, single point]	
NNC(=O)c1cc2c(s1)CCCCCC2		inactive: 3.9%
C=C(C)CN1CCN(S(=O)(=O)c2ccc(C)c(N(C)S(=O)(=O)c3ccc(C)cc3)c2C)CC1	inconclusive: 2.82 µM [inhibitor, partial curve]	
CCCCCC/C(=N/O)c1ccccn1	inconclusive: 11.2 µM [inhibitor, partial curve]	
Cc1ccc(-n2cc3c(-c4cccc(Br)c4)nnc(C)c3n2)cc1	inconclusive: 35.5 µM [inhibitor, single point]	
Cc1nn(-c2ccccc2)c2c1C(O)n1c(nc3ccccc31)S2 (centres undefined)	inconclusive: 35.5 µM [inhibitor, single point]	
CN1CCN(C(=O)c2c(NC(=O)c3ccco3)sc3c2CCC(C(C)(C)C)C3)CC1 (centres undefined)	inconclusive: 35.5 µM [inhibitor, single point]	
CCOc1ccccc1NC(=O)c1cc(CC(C)C)oc1C	inconclusive: 11.2 µM [inhibitor, partial curve]	
Cc1oc(-c2ccc(Cl)cc2)nc1CN1CCC(C(=O)N2CCN(Cc3ccccc3)CC2)CC1	inconclusive: 14.1 µM [inhibitor, single point]	
Cc1nc(NCc2ccco2)c2c(C)c(C)sc2n1	inconclusive: 1 µM [activator, partial curve]	
Cc1ccc(S(=O)(=O)N(C)/N=C/C=C/c2ccccc2)cc1	inconclusive: 3.98 µM [inhibitor, partial curve]	

Arranged by number of heavy atoms (rising): some entries from above.
Compound	Potency	activity change, negative = inhibition
Nc1nc(-c2ccccn2)nc(N)c1Cc1ccccc1F	inconclusive: 22.4 µM [inhibitor, single point]	
O=S(=O)(c1ccc(Br)cc1)N1CCCC1c1nc2ccccc2s1 (centres undefined)	inconclusive: 12.6 µM [inhibitor, partial curve]	
CN1CCN(C(=O)c2c(NC(=O)c3ccco3)sc3c2CCC(C(C)(C)C)C3)CC1 (centres undefined)	inconclusive: 35.5 µM [inhibitor, single point]	
